Measured values taken from publication PMC11750622, “Structural insights into translocation and tailored synthesis of hyaluronan” (Nature Structural & Molecular Biology, 2024).
These are yes or no findings as the source states them, for the method shown.

Target: T1, Xenopus laevis HAS isoform 1 (Xenopus laevis, UniProt P13563)
T1 construct: also called XlHAS1; DG42
Experiment: SEC + cryo-EM structure; purified XlHAS1 on Superdex200 in GDN detergent (20 mM Tris-HCl pH 7.8, 150 mM NaCl, 0.02% GDN); cryo-EM of the XlHAS1-Fab complex; both purified

binding: no binding
B1: Xenopus laevis HAS isoform 1 (enzyme, UniProt P13563 1-588)
chain: MKEKAAETMEIPEGIPKDLEPKHPTLWRIIYYSFGVVLLATITAAYVAEFQVLKHEAILFSLGLYGLAMLLHLMMQSLFAFLEIRRVNKSELPCSFKKTVALTIAGYQENPEYLIKCLESCKYVKYPKDKLKIILVIDGNTEDDAYMMEMFKDVFHGEDVGTYVWKGNYHTVKKPEETNKGSCPEVSKPLNEDEGINMVEELVRNKRCVCIMQQWGGKREVMYTAFQAIGTSVDYVQVCDSDTKLDELATVEMVKVLESNDMYGAVGGDVRILNPYDSFISFMSSLRYWMAFNVERACQSYFDCVSCISGPLGMYRNNILQVFLEAWYRQKFLGTYCTLGDDRHLTNRVLSMGYRTKYTHKSRAFSETPSLYLRWLNQQTRWTKSYFREWLYNAQWWHKHHIWMTYESVVSFIFPFFITATVIRLIYAGTIWNVVWLLLCIQIMSLFKSIYACWLRGNFIMLLMSLYSMLYMTGLLPSKYFALLTLNKTGWGTSGRKKIVGNYMPILPLSIWAAVLCGGVGYSIYMDCQNDWSTPEKQKEMYHLLYGCVGYVMYWVIMAVMYWVWVKRCCRKRSQTVTLVHDIPDMCV
